This is an account of results in publication PMC12427801, “Deciphering α-L-Fucosidase Activity Contribution in Human and Mouse: Tissue α-L-Fucosidase FUCA1 Meets Plasma α-L-Fucosidase FUCA2” (Cells, 2025).

Experiment [1] deals with H6-tagged human plasma α-L-fucosidase 2 (FUCA2-H6) (human) (UniProt Q9BTY2). The experiment can be described thus: SEC; Superdex 200 Increase 10/300 GL, McIlvaine buffer pH 4.6, 0.3 mL/min; purified protein; fractions tested by 4-MUF fucosidase activity (FUCA1) or H6-tag western blot (FUCA2-H6); both purified.
Experiment [2] has as its target native mouse tissue α-L-fucosidase 1 (Fuca1) from liver lysosome-enriched fractions (tritosomes) (mouse (endogenous in liver)) (UniProt Q99LJ1). The experiment can be described thus: SEC; Superdex 200 Increase 10/300 GL, McIlvaine buffer pH 4.6; lysosome-enriched fraction (tritosomes) of mouse liver; fractions tested by 4-MUF fucosidase activity.
Experiment [3] shares this target. The experiment can be described thus: SEC; Superdex 200 Increase 10/300 GL, PBS pH 7.4; lysosome-enriched fraction (tritosomes) of mouse liver; fractions tested by 4-MUF fucosidase activity. (In general: In gel filtration, larger molecules generally elute earlier.)
Experiment [4] deals with untagged human tissue α-L-fucosidase 1 (FUCA1) (human) (UniProt P04066). The experiment in a line: SEC; Superdex 200 Increase 10/300 GL, PBS pH 7.4, 0.3 mL/min; purified protein; fractions tested by 4-MUF fucosidase activity; both purified.

No constants are given. Whether binding was seen depends on the method and setting. Some results given as binding are weak or reduced against the parent protein; the word gives no strength. For some of these results: Sequences can lack the tags named with a protein.

B1: H6-tagged human plasma α-L-fucosidase 2 (FUCA2-H6) (protein, UniProt Q9BTY2-1 29-467)
chain: HSATRFDPTWESLDARQLPAWFDQAKFGIFIHWGVFSVPSFGSEWFWWYWQKEKIPKYVEFMKDNYPPSFKYEDFGPLFTAKFFNANQWADIFQASGAKYIVLTSKHHEGFTLWGSEYSWNWNAIDEGPKRDIVKELEVAIRNRTDLRFGLYYSLFEWFHPLFLEDESSSFHKRQFPVSKTLPELYELVNNYQPEVLWSDGDGGAPDQYWNSTGFLAWLYNESPVRGTVVTNDRWGAGSICKHGGFYTCSDRYNPGHLLPHKWENCMTIDKLSWGYRREAGISDYLTIEELVKQLVETVSCGGNLLMNIGPTLDGTISVVFEERLRQMGSWLKVNGEAIYETHTWRSQNDTVTPDVWYTSKPKEKLVYAIFLKWPTSGQLFLGHPKAILGATEVKLLGHGQPLNWISLEQNGIMVELPQLTIHQMPCKWGWALALTNVI
For B1, the binding entry in experiment [1] is reported as “no binding”.

B2: native mouse tissue α-L-fucosidase 1 (Fuca1) from liver lysosome-enriched fractions (tritosomes) (enzyme, UniProt Q99LJ1 18-452)
chain: LAPRRFTPDWQSLDSRPLPSWFDEAKFGVFVHWGVFSVPAWGSEWFWWHWQGDRMPAYQRFMTENYPPGFSYADFAPQFTARFFHPDQWAELFQAAGAKYVVLTTKHHEGFTNWPSPVSWNWNSKDVGPHRDLVGELGAAVRKRNIRYGLYHSLLEWFHPLYLLDKKNGFKTQHFVRAKTMPELYDLVNSYKPDLIWSDGEWECPDTYWNSTSFLAWLYNDSPVKDEVIVNDRWGQNCSCHHGGYYNCQDKYKPQSLPDHKWEMCTSMDRASWGYRKDMTMSTIAKENEIIEELVQTVSLGGNYLLNIGPTKDGLIVPIFQERLLAVGKWLQINGEAIYASKPWRVQSEKNKTVVWYTTKNATVYATFLYWPENGIVNLKSPKTTSATKITMLGLEGDLSWTQDPLEGVLISLPQLPPTVLPVEFAWTLKLTKVN
As for B2, the binding entry in experiment [2] was “binds”; in experiment [3] it was “no binding (condition: at pH 7.4 (PBS))”.

B3: untagged human tissue α-L-fucosidase 1 (FUCA1) (enzyme, UniProt P04066 32-466, looked up)
chain: QPPRRYTPDWPSLDSRPLPAWFDEAKFGVFIHWGVFSVPAWGSEWFWWHWQGEGRPQYQRFMRDNYPPGFSYADFGPQFTARFFHPEEWADLFQAAGAKYVVLTTKHHEGFTNWPSPVSWNWNSKDVGPHRDLVGELGTALRKRNIRYGLYHSLLEWFHPLYLLDKKNGFKTQHFVSAKTMPELYDLVNSYKPDLIWSDGEWECPDTYWNSTNFLSWLYNDSPVKDEVVVNDRWGQNCSCHHGGYYNCEDKFKPQSLPDHKWEMCTSIDKFSWGYRRDMALSDVTEESEIISELVQTVSLGGNYLLNIGPTKDGLIVPIFQERLLAVGKWLSINGEAIYASKPWRVQWEKNTTSVWYTSKGSAVYAIFLHWPENGVLNLESPITTSTTKITMLGIQGDLKWSTDPDKGLFISLPQLPPSAVPAEFAWTIKLTGVK
notes: human tissue α-L-fucosidase FUCA1; untagged, secreted into the medium; N-glycosylated; also called untagged FUCA1; hFUCA1; source: CHO-K1 cells, stably expressing, conditioned medium, purified (ammonium sulfate precipitation, strong cation exchange)
Take B3: the binding result in experiment [4] was “no binding (condition: at pH 7.4 (PBS))”.
